# Assay results as given in the supplement of paper PMC10735217.
# The other results are listed elsewhere or left out. Single values are uncertain here, since repeats match poorly.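 The human kidney-derived cells carry a stably integrated construct of eight TEAD-binding elements driving luciferase, read by luminescence in a drug-repurposing library screen. A compound counts as a hit when its signal is more than five robust Z scores above the plate mean.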
# System: HEK293A TEAD-LUC reporter
# Test: TEAD-luciferase reporter activity (YAP activation), robust Z score vs plate; higher = stronger YAP/TEAD activation
# Conditions: 24 h
Compound,TEAD-luciferase reporter activity (compound concentration: 200 nM),TEAD-luciferase reporter activity (compound concentration: 2 uM),TEAD-luciferase reporter activity (compound concentration: 10 uM)
Cn1cc(C(=O)c2cccc3ccccc23)cc1C(=O)O [Napirimus],inactive: -0.195,inactive: -0.876,inactive: -0.971
O=C1C[C@@H]2OCC=C3CN4CC[C@]56c7ccccc7N1[C@H]5[C@H]2[C@H]3C[C@H]46,inactive: 1.9,inactive: -0.242,inactive: 3
CCCN(CCC)Cc1cnc(-c2ncn3c2CN(C)C(=O)c2cc(F)ccc2-3)o1,inactive: -0.419,inactive: -0.207,inactive: -0.408
COc1cccc(C2(O)CCN(C[C@H](O)COc3cccc4[nH]ccc34)CC2)c1,inactive: -0.663,inactive: -0.167,inactive: 4.25
Cc1c(Cl)c(=O)oc2cc(OP(=O)(OCCCl)OCCCl)ccc12,inactive: -0.706,inactive: -0.348,inactive: 0.0627
CC(=O)N(C)c1cccc(-c2ccnc3c(C(=O)c4cccs4)cnn23)c1 [Indiplon],inactive: -0.983,inactive: -0.768,inactive: 0.547
CCCN1C[C@@H](c2ccc(N)nc2)OC[C@@H]1C,inactive: 0.942,inactive: 0.257,inactive: 2.87
CCOC(=O)CC1CCN(CCOC(c2ccccc2)c2ccccc2)CC1,inactive: -1.2,inactive: -0.285,inactive: -0.232
NC1CCN(c2cccnc2)C1 (stereo not given),inactive: -0.628,inactive: -0.0416,inactive: -0.67
CC1(C)CCC(C)(C)c2c1cc(C(=O)Nc1cc(F)c(C(=O)O)c(F)c1)c(O)c2Cl,inactive: 0.427,inactive: 2.11,inactive: -0.345
CC[N+](C)(CC)CCOC(=O)C(O)(c1ccccc1)c1ccccc1,inactive: -0.492,inactive: 0.181,inactive: 0.402
C/C=C(\C)C(=O)O[C@@H]1C[C@H]2CC[C@@H](C1)N2C,inactive: -0.223,inactive: 0.462,inactive: -1.97
O=P(O)(NCCCl)NCCCl [Palifosfamide],inactive: 0.211,inactive: -1.45,inactive: 0.177
O=P(O)(NCCCl)NCCCl [palifosfamide],–,inactive: -0.925,–
C[C@@H]1O[C@@H](O[C@@H]2C=C3CC[C@@H]4C(CC[C@]5(C)[C@@H](c6ccc(=O)oc6)CC[C@]45O)[C@@]3(C)CC2)[C@H](O)[C@H](O)[C@H]1O (stereo not given in full) [Proscillaridin],active: 14,inactive: -2.75,inactive: 4.55
Oc1ccc2[nH]cc(CCCCN3CC=C(c4ccccc4)CC3)c2c1 [Roxindole],inactive: -1.17,inactive: -1.18,active: 8.93
C/C=C/CC1(CC)C(=O)NC(=O)NC1=O,inactive: -0.926,inactive: 0.271,inactive: 1.74
Cl[Te-]1(Cl)(Cl)OCCO1 [ammonium trichlorotellurate],–,inactive: 2.27,–
Cl[Te-]1(Cl)(Cl)OCCO1 [2016-03-02: ammonium trichlorotellurate],inactive: -0.546,–,inactive: -0.22
Cl[Te-]1(Cl)(Cl)OCCO1 [_:_2016-03-02: ammonium trichlorotellurate],–,inactive: 0.62,–

# Whole records from above. Values in the order: TEAD-luciferase reporter activity (compound concentration: 200 nM)	TEAD-luciferase reporter activity (compound concentration: 2 uM)	TEAD-luciferase reporter activity (compound concentration: 10 uM)
# Cl[Te-]1(Cl)(Cl)OCCO1 [ammonium trichlorotellurate] as listed: –	inactive: 2.27	–
# Oc1ccc2[nH]cc(CCCCN3CC=C(c4ccccc4)CC3)c2c1 [Roxindole] as listed: inactive: -1.17	inactive: -1.18	active: 8.93
# C[C@@H]1O[C@@H](O[C@@H]2C=C3CC[C@@H]4C(CC[C@]5(C)[C@@H](c6ccc(=O)oc6)CC[C@]45O)[C@@]3(C)CC2)[C@H](O)[C@H](O)[C@H]1O (stereo not given in full) [Proscillaridin] as listed: active: 14	inactive: -2.75	inactive: 4.55

# Following part

Compound,TEAD-luciferase reporter activity (compound concentration: 200 nM),TEAD-luciferase reporter activity (compound concentration: 2 uM),TEAD-luciferase reporter activity (compound concentration: 10 uM)
CC(C)(C)C(=O)NNCc1ccccc1,active: 8.03,inactive: 0.728,inactive: 1.38
CN1C2CCC1CC(OC(=O)C1(c3ccccc3)CCCC1)C2 (stereo not given),inactive: -4.15,inactive: -0.231,inactive: -1.58
CCOC(=O)C1(c2ccccc2)CCN(CCc2ccc(NC(=O)C(C)N)cc2)CC1 (stereo not given),inactive: 0.407,inactive: -0.0792,inactive: 0.444
CN(C)C[C@H]1CCCC[C@]1(O)c1cccc(O)c1 [O-Desmethyltramadol],inactive: 1.22,inactive: -0.773,inactive: 0.24
Clc1ccc(C(OCCN2CCCCC2)c2ccccc2)cc1 (stereo not given),inactive: 0.621,inactive: 1.6,inactive: -0.704
C#CC[C@]12CCC(=O)C=C1CC[C@@H]1[C@@H]2CC[C@]2(C)C(=O)CC[C@@H]12 [Plomestane],inactive: -1.14,inactive: -1.57,inactive: 1.63
CNC(=O)NC(O)C(Cl)(Cl)Cl (stereo not given),inactive: 1.1,inactive: -2.15,inactive: -0.101
O=C(Nc1ccccc1)c1c(O)nc(S)nc1O [Merbarone],–,inactive: 1.84,–
O=C(Nc1ccccc1)c1c(O)nc(S)nc1O [merbarone],inactive: -0.285,inactive: 3.93,inactive: -0.0155
CCN1[C@@H]2CC[C@H]1C[C@@H](OC(c1ccccc1)c1ccccc1)C2,inactive: 3.97,inactive: -0.842,inactive: 4.23
Clc1ccc(C2=Cc3ccccc3C3=NCCN23)cc1,inactive: -0.317,inactive: 1.79,inactive: -0.669
Oc1noc2c1CCNC2 [Gaboxadol],inactive: 0.578,inactive: 0.274,inactive: 0.0179
O=C(NP(=O)(N1CC1)N1CC1)OCc1ccccc1,inactive: -1.45,inactive: 3.37,inactive: 4.99
"CN1C2CC(OC(=O)C(CO)c3ccccc3)CC1C1OC12 (stereo not given) [scopolamine, Epiomed]",inactive: 0.383,inactive: -1.35,inactive: 2.95
O=c1[nH]c2ccccc2n1C1CCNCC1,inactive: -0.233,inactive: 1.41,inactive: -1.17
Cc1c(F)cccc1[C@H]1COC(N)=N1,inactive: 1.44,inactive: -1.61,inactive: 2.69
CC(C)n1cc2c3c(cccc31)[C@H]1C[C@@H](C(=O)N[C@H]3CCC[C@H]3O)CN(C)[C@@H]1C2,inactive: 2.1,inactive: -1.69,inactive: -0.746
"COc1ccc(Cc2nccc3cc(OC)c(OC)cc23)cc1OC [papaverine, S-P]",inactive: -0.591,–,inactive: 4.38
COc1ccc(Cc2nccc3cc(OC)c(OC)cc23)cc1OC [papaverine],–,inactive: -1.58,–
